Reference: patent publication US11597962B2 (priority 2017, dated 2023)

Columns and labels:
[1] = general procedure: Fmoc solid-phase peptide synthesis; Wang resin; HCTU/NMM; conditions: whole synthesis, RP-HPLC, scale 0.1 mmol
[2] = general procedure: Fmoc solid-phase peptide synthesis; Wang resin (tryptophan preloaded 0.59 mmol/g; alanine preloaded 0.57 mmol/g); HCTU/NMM; conditions: whole synthesis, scale of the general procedure 0.1 mmol

Substance: Leucocin A (KYYGNGVHCTKSGCSVNWGEAFSAGVHRLANGGNGFW; immobilized; 37 amino acid Leucocin A)
- final HPLC purity [1]: >95%
- isolated yield [2]: 60%

Substance: negative peptide (NGVHATKSGASVNWGEAFSA; Control Leucocin A fragment)
- final HPLC purity [1]: >95%
- isolated yield [2]: 75%
